Laboratory results: PubChem BioAssay AID493246 (Drosophila RNAi Screening Center, 2011)
The screen tested about 21,000 reagents; below is a random part of those that have a named target and a result. In the full data, 429 (2%) were called active. 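Values are raw and not normalised between plates; calls rest on per-plate z-scores that were not deposited.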 Unmarked entries are inactive. The numbers tell different reagents against one gene apart. Names joined by + are all predicted targets of the reagent. The record does not give: the amount of reagent, the time to read-out.

Screen: 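Identify essential fly genes by loss of cell viability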 (primary screen)
System: Drosophila Kc and S2R+ cells
Reagent: long dsRNA against Drosophila genes
Read-out: 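Raw, unnormalised count of remaining cells in each well; per-plate z-scores of cell number underlie the calls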
Direction: Kc cell number and S2R+ cell number: higher = more cells remaining
Call rule: 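Active when the per-plate z-score of cell number is 3 or more in the direction of fewer cells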

target | reagent | Kc cell number, rep 1 | Kc cell number, rep 2 | S2R+ cell number, rep 1 | S2R+ cell number, rep 2
bcd + CR14578 | 1 | 1.47e6 | 1.45e6 | 9.94e5 | 1.16e6
CG4751 | 1 | 1.36e6 | 1.40e6 | 1.17e6 | 1.25e6
CG15482 | 1 | 1.70e6 | 1.75e6 | 1.29e6 | 1.45e6
CG3862 | 1 | 1.31e6 | 1.61e6 | 1.17e6 | 1.30e6
Cyp4ac2 | 1 | 1.69e6 | 1.58e6 | 1.24e6 | 1.42e6
larp | 1 | 1.40e6 | 1.41e6 | 9.35e5 | 1.00e6
larp | 2 | 1.38e6 | 1.42e6 | 9.23e5 | 1.08e6
CG31673 | 1 | 1.39e6 | 1.46e6 | 1.00e6 | 9.89e5
CG14634 | 1 | 1.56e6 | 1.49e6 | 1.08e6 | 1.17e6
Ir67b | 1 | 1.60e6 | 1.69e6 | 1.15e6 | 1.34e6
eIF2Bdelta | 1 | 1.49e6 | 1.57e6 | 1.10e6 | 1.20e6
CG9631 | 1 | 1.55e6 | 1.62e6 | 1.17e6 | 1.24e6
CecB | 1 | 1.64e6 | 1.60e6 | 1.03e6 | 1.13e6
CG34288 | 1 | 1.76e6 | 1.73e6 | 1.17e6 | 1.17e6
CG17202 | 1 | 1.61e6 | 1.77e6 | 1.14e6 | 1.21e6
CG33627 | 1 | 1.69e6 | 1.75e6 | 1.06e6 | 1.30e6
Kcmf1 | 1 | 1.47e6 | 1.54e6 | 1.19e6 | 1.25e6
ics | 1 | 1.36e6 | 1.37e6 | 1.37e6 | 1.28e6
EMC2B + EMC2A | 1 | 1.45e6 | 1.49e6 | 1.20e6 | 1.35e6
ImpE3 | 1 | 1.43e6 | 1.60e6 | 1.27e6 | 1.33e6
Cdk5alpha | 1 | 1.43e6 | 1.54e6 | 1.15e6 | 1.26e6
Best1 | 1 | 1.75e6 | 1.81e6 | 1.17e6 | 1.30e6
CG43861 + CG12508 (retired record) | 1 | 1.58e6 | 1.63e6 | 1.28e6 | 3.26e5
WRNexo | 1 | 1.59e6 | 1.65e6 | 1.28e6 | 1.38e6
Srlp | 1 | 5.56e5 (active) | 6.86e5 | 4.79e5 | 5.63e5
RhoGAP54D | 1 | 1.58e6 | 1.70e6 | 1.15e6 | 1.30e6
Scp1 | 1 | 1.33e6 | 1.71e6 | 1.24e6 | 1.23e6
Scp1 | 2 | 1.53e6 | 1.69e6 | 1.11e6 | 1.20e6
Scp1 | 3 | 1.50e6 | 1.58e6 | 1.09e6 | 1.18e6
Pdk1 | 1 | 1.55e6 | 1.62e6 | 9.97e5 | 1.29e6

Continued (2 carried over from the part before).
target | reagent | Kc cell number, rep 1 | Kc cell number, rep 2 | S2R+ cell number, rep 1 | S2R+ cell number, rep 2
Scp1 | 3 | 1.50e6 | 1.58e6 | 1.09e6 | 1.18e6
Pdk1 | 1 | 1.55e6 | 1.62e6 | 9.97e5 | 1.29e6
CG18764 | 1 | 1.58e6 | 1.66e6 | 1.37e6 | 1.44e6
Muc12Ea | 1 | 1.56e6 | 1.71e6 | 1.05e6 | 1.25e6
TwdlO | 1 | 1.55e6 | 1.62e6 | 9.98e5 | 1.13e6
fwe | 1 | 1.43e6 | 1.48e6 | 1.13e6 | 1.31e6
fwe | 2 | 1.58e6 | 1.55e6 | 1.21e6 | 1.29e6
Grx1t | 1 | 1.64e6 | 1.69e6 | 1.23e6 | 3.00e5
Ir92a | 1 | 1.41e6 | 1.42e6 | 1.04e6 | 1.11e6
CG30393 | 1 | 1.65e6 | 1.80e6 | 1.43e6 | 3.37e5
CG4839 | 1 | 1.51e6 | 1.58e6 | 9.66e5 | 1.00e6
CG4839 | 2 | 1.51e6 | 1.57e6 | 1.19e6 | 1.35e6
SPoCk | 1 | 1.58e6 | 1.89e6 | 1.20e6 | 1.29e6
SPoCk | 2 | 1.73e6 | 1.87e6 | 1.24e6 | 1.44e6
SPoCk | 3 | 1.52e6 | 1.63e6 | 1.21e6 | 1.29e6
SPoCk | 4 | 1.41e6 | 1.50e6 | 1.23e6 | 1.33e6
CG12963 | 1 | 1.71e6 | 1.68e6 | 1.26e6 | 1.46e6
Ugt36A1 + CG15418 | 1 | 1.91e6 | 1.80e6 | 1.22e6 | 1.33e6
CG1418 | 1 | 1.61e6 | 1.54e6 | 1.33e6 | 1.41e6
CG34155 | 1 | 1.50e6 | 1.61e6 | 1.08e6 | 1.13e6
CG34046 (retired record) | 1 | 1.34e6 | 1.44e6 | 1.04e6 | 1.07e6
Hsp110 | 1 | 1.55e6 | 1.67e6 | 1.18e6 | 1.24e6
CG17122 | 1 | 1.51e6 | 1.68e6 | 1.22e6 | 1.32e6
Nup62 | 1 | 1.29e6 | 1.37e6 | 1.14e6 | 1.14e6
FASN1 | 1 | 1.17e6 | 1.17e6 | 8.10e5 | 9.35e5
LIMK1 | 1 | 5.89e5 | – | 8.89e5 | –
Cyp309a2 | 1 | 1.85e6 | 1.83e6 | 1.11e6 | 1.23e6
Arp3 | 1 | 1.26e6 | 1.34e6 | 1.32e6 | 1.25e6
CG4000 | 1 | 1.34e6 | 1.30e6 | 9.61e5 | 1.10e6
CCT1 | 1 | 1.58e6 | 1.52e6 | 9.19e5 | 1.11e6
CkIIbeta2 | 1 | 1.64e6 | 1.68e6 | 1.24e6 | 1.46e6
